Experimental data taken from US11179452B2, “Antigen specific multi epitope vaccines” (priority 2006, dated 2021).
Some of these results come from one statement about several compounds together. No end group written: not given here.

Test system: lymphocytes from naive donors
Test: Proliferation assay, kinetics of lymphocyte activation as summarised in text (presentation mode not stated)
Type: cell-based, human
Conditions: summary of five experiments
Procedure: Proliferation analysis was conducted in three different methods. In all three methods, plates were cultured for 3-5 days under visual control and then 0.5 […]Cu/well of 3[H] (Amersham) was added for additional culture of to 18 h at 37° C. In the last step, plates were harvested and the radioactive counts were measured in a □ counter. • 1. DC indirect presentation: In the first method, 100 µl of 2×10^6 thawed PBL were placed in U-shape Bottom 96 well plate (Nunc) with RPMI medium supplemented with 5% H AB serum, L-Glutamine, Sodium Pyruvate, MEM-EAGLE non-essential amino-acids, HEPES and Gentamycin. At the next stage 100 µl of 25×10^4 peptide-pulsed DC were added to each three wells of PBL and underwent proliferation analysis as described above. • 2. PBL direct presentation: In the 2nd method, 100 µl of 2×10^6 PBL were placed in Flat Bottom 96 well plates (Corning) and stimulated with different concentrations (0.05 ug/ml-2 ug/ml) of peptides. In the next step the cells underwent proliferation analysis as described above. • 3. […]
A different parameter for assessing the properties of ImMucin and the other VXL-peptide epitopes is by analyzing the time until a maximal peak of activity occurs and the optimal dose for maximal stimulation. Maximal peak of PBL activation is determined when <50% of the PBLs appear in clumps. […]

Row | Sequence | peak of proliferation / maximum stimulation
1 | SPFFLLLLL [VXL-5, SPFFLLLLL] | 48 to 72 h
2 | TQSPFFLLL [VXL-4, TQSPFFLLL] | 48 to 72 h
